{"source": "patent US8183211B2", "about": "“Pharmaceutical compositions for inhibiting intestinal permeability” (University of Maryland, Baltimore, priority 2000, dated 2012)", "system": "intraluminal zonulin", "assay": "Intraluminal zonulin by sandwich ELISA of intestinal lavage", "format": "in vivo, rat", "note": "Ends that are not written are not given here."}
{"sequence": "GGVLVQPG [FZI/0, synthetic octapeptide corresponding to amino acid residues 8-15 of human fetal zonulini]", "values": [{"measurement": "intraluminal zonulin, treated rats that developed diabetes versus treated rats that did not", "setting": "treated diabetic-prone rats", "result": 3, "unit": "fold"}, {"measurement": "intraluminal zonulin levels of treated rats that did not develop diabetes", "setting": "versus untreated controls", "result": "comparable with the untreated controls"}]}
